Measurements from patent US7122326B2 (Universite Louis Pasteur, priority 2001, dated 2006).

Key:
[1] = test system: xanthurenic acid binding site(s); experiment: [3H]-XA binding to synaptic membranes, without ions; set-up: species or system rat
[2] = test system: xanthurenic acid binding site(s); experiment: [3H]-XA binding to synaptic membranes in the presence of copper ions; set-up: species or system rat

O=C(O)c1cc(O)c2cccc(O)c2n1 [XA, xanthurenic acid]
Bmax [1]: 6.9±1.2 pmol/mg of protein | optimum pH for xanthurenic acid binding [1]: 7.4–7.5 | Bmax [2]: 581.8±33 pmol/mg of protein | optimum pH for xanthurenic acid binding [2]: 6.4–6.5
